Reference: paper PMC4510537
These are yes or no findings as the source states them, for the method shown. In cells and extracts the contact can be indirect. Some results given as binding are weak or reduced against the parent protein; the word gives no strength. Where a sequence is shown, tags or fusion partners need not be part of it.

Biological target: HA2-CD164 (human) (UniProt Q04900)
Assay: co-IP; HEK-293 cells co-transfected with distinctly tagged CD164 and CD164 R192*, lysed 2 days later in immunoprecipitation buffer; precipitated with anti-HA (12CA5) and protein G agarose; reducing SDS-PAGE, immunoblot with anti-FLAG (M2) or anti-HA

B1: FLAG4-CD164 R192* (protein, UniProt Q04900 24-191)
chain: DKNTTQHPNVTTLAPISNVTSAPVTSLPLVTTPAPETCEGRNSCVSCFNVSVVNTTCFWIECKDESYCSHNSTVSDCQVGNTTDFCSVSTATPVPTANSTAKPTVQPSPSTTSKTVTTSGTTNNTVTPTSQPVRKSTFDAASFIGGIVLVLGVQAVIFFLYKFCKSKE
binding: binds
